{"source": "patent US10113200B2", "about": "“Genes associated with dasatinib sensitivity” (MEMORIAL SLOAN-KETTERING CANCER CENTER, priority 2012, dated 2018)", "key": {"22RV1 [1]": {"system": "22RV1", "assay": "predictive RT-PCR 7-gene sensitivity score (Eqn. 3)", "conditions": "score <60 sensitive, >60 resistant"}, "CWR": {"system": "CWR", "assay": "predictive RT-PCR 7-gene sensitivity score (Eqn. 3)", "conditions": "score <60 sensitive, >60 resistant"}, "LAPC4": {"system": "LAPC4", "assay": "predictive RT-PCR 7-gene sensitivity score (Eqn. 3)", "conditions": "score <60 sensitive, >60 resistant"}, "LNCAP [2]": {"system": "LNCAP", "assay": "predictive RT-PCR 7-gene sensitivity score (Eqn. 3)", "conditions": "score <60 sensitive, >60 resistant"}, "PC3 [3]": {"system": "PC3", "assay": "predictive RT-PCR 7-gene sensitivity score (Eqn. 3)", "conditions": "score <60 sensitive, >60 resistant"}, "VCAP [4]": {"system": "VCAP", "assay": "predictive RT-PCR 7-gene sensitivity score (Eqn. 3)", "conditions": "score <60 sensitive, >60 resistant"}, "MDA [5]": {"system": "MDA", "assay": "predictive RT-PCR 7-gene sensitivity score (Eqn. 3)", "conditions": "score <60 sensitive, >60 resistant"}, "CRPC patients": {"system": "CRPC patients", "assay": "PSA and uNTX changes in CRPC patients treated with dasatinib (FIG. 7)", "format": "in vivo", "conditions": "100 mg once daily"}, "22RV1 [6]": {"system": "22RV1", "conditions": "22RV1 cell line; reported by Wang et al.; cited from earlier work"}, "LNCAP [7]": {"system": "LNCAP", "conditions": "LNCAP cell line; reported by Wang et al.; cited from earlier work"}, "PC3 [8]": {"system": "PC3", "conditions": "PC3 cell line; reported by Wang et al.; cited from earlier work"}, "VCAP [9]": {"system": "VCAP", "conditions": "VCAP cell line; reported by Wang et al.; cited from earlier work"}, "MDA [10]": {"system": "MDA", "conditions": "MDA cell line; reported by Wang et al.; cited from earlier work"}, "[11]": {"system": "16 prostate cancer cell lines", "conditions": "of 16 prostate cancer cell lines; cited from earlier work"}, "[12]": {"system": "castration-sensitive and castration-resistant tumors", "conditions": "orthotopic nude mouse models; cited from earlier work"}, "prostate carcinoma": {"system": "prostate carcinoma", "conditions": "in vitro model systems of prostate carcinoma; cited from earlier work"}}, "note": "“Also recorded” adds a separate entry of the source. For at least one compound, name, drawing or mass did not settle the structure.", "data": [{"smiles": "Cc1nc(Nc2ncc(C(=O)Nc3c(C)cccc3Cl)s2)cc(N2CCN(CCO)CC2)n1", "note": "[dasatinib]", "values": [{"measurement": "Result (predicted dasatinib sensitivity from RT-PCR score)", "setting": "22RV1 [1]", "result": "Resistant"}, {"measurement": "Result (predicted dasatinib sensitivity from RT-PCR score)", "setting": "CWR", "result": "Resistant"}, {"measurement": "Result (predicted dasatinib sensitivity from RT-PCR score)", "setting": "LAPC4", "result": "Sensitive"}, {"measurement": "Result (predicted dasatinib sensitivity from RT-PCR score)", "setting": "LNCAP [2]", "result": "Sensitive"}, {"measurement": "Result (predicted dasatinib sensitivity from RT-PCR score)", "setting": "PC3 [3]", "result": "Sensitive"}, {"measurement": "Result (predicted dasatinib sensitivity from RT-PCR score)", "setting": "VCAP [4]", "result": "Resistant"}, {"measurement": "Result (predicted dasatinib sensitivity from RT-PCR score)", "setting": "MDA [5]", "result": "Resistant"}, {"measurement": "decline in uNTX versus PSA decline", "setting": "CRPC patients", "result": "decline in uNTX, indicating anti-resorptive effect, is present in a significantly larger percentage of patients than PSA decline"}, {"measurement": "Expected Profile (IC-50)", "setting": "22RV1 [6]", "result": "Resistant"}, {"measurement": "Expected Profile (IC-50)", "setting": "LNCAP [7]", "result": "resistant; also recorded: Sensitive"}, {"measurement": "Expected Profile (IC-50)", "setting": "PC3 [8]", "result": "Sensitive"}, {"measurement": "Expected Profile (IC-50)", "setting": "VCAP [9]", "result": "Resistant"}, {"measurement": "Expected Profile (IC-50)", "setting": "MDA [10]", "result": "Resistant"}, {"measurement": "number of cell lines resistant to dasatinib", "setting": "[11]", "result": 5}, {"measurement": "number of cell lines sensitive to dasatinib", "setting": "[11]", "result": 11}, {"measurement": "tumor growth and development of lymph node metastases", "setting": "[12]", "result": "effectively inhibited both tumor growth and development of lymph node metastases"}, {"measurement": "cell adhesion, migration and invasion", "setting": "prostate carcinoma", "result": "inhibits cell adhesion, migration and invasion"}]}]}
